Measured values: paper doi:10.1101/284166
These are yes or no findings as the source states them, for the method shown. Binding seen in cells or lysates may run through a third protein. Some entries that bind do so weakly or less than the wild type. Values belong to the molecule of their own block, whether it stands above or below them.

Protein sequences, listed by entry. Tags and fused reporters are not part of them. Lines headed by an entry give the natural chain unless they say otherwise; changes in a name come on top. Residues count along the entry.
UniProt Q68FD5: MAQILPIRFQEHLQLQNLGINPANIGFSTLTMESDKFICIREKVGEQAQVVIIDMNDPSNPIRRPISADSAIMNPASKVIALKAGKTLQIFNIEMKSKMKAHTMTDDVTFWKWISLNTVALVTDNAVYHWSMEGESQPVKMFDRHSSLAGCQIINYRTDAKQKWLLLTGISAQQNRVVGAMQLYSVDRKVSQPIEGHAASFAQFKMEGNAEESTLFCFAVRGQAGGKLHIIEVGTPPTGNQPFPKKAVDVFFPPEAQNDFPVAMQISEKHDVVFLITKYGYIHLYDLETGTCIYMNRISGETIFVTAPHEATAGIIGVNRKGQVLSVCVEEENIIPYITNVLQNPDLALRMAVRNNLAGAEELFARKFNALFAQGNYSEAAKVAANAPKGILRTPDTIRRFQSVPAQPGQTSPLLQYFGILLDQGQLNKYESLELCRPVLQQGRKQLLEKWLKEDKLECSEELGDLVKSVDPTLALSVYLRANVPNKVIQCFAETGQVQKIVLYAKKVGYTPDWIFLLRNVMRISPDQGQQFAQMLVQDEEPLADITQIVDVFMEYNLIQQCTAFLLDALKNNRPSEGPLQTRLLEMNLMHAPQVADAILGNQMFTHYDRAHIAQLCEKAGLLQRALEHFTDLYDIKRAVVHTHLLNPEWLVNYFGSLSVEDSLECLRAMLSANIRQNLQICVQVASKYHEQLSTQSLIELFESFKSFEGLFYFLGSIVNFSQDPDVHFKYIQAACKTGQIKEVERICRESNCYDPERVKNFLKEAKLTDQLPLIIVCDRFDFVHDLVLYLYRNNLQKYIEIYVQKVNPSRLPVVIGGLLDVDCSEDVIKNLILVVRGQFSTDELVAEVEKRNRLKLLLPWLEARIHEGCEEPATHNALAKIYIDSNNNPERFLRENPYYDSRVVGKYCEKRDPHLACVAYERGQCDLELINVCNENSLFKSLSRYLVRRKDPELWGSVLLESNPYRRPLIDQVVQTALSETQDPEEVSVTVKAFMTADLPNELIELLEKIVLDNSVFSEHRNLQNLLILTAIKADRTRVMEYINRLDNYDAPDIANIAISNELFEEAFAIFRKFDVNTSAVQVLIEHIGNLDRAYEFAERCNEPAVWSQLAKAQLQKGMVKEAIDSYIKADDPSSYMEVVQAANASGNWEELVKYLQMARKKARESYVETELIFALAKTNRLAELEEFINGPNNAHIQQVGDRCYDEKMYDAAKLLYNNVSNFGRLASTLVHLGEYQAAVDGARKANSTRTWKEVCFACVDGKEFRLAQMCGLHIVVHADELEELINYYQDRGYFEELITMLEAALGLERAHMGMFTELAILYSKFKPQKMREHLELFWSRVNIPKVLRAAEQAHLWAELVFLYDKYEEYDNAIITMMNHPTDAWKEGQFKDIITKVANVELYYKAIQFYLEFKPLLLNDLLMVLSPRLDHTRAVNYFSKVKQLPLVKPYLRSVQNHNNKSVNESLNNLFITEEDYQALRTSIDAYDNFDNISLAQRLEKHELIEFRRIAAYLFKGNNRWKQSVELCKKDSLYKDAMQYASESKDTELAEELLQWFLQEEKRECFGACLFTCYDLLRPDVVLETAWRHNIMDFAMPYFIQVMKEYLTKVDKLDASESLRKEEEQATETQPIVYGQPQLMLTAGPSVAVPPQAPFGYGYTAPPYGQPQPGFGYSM
UniProt Q61768: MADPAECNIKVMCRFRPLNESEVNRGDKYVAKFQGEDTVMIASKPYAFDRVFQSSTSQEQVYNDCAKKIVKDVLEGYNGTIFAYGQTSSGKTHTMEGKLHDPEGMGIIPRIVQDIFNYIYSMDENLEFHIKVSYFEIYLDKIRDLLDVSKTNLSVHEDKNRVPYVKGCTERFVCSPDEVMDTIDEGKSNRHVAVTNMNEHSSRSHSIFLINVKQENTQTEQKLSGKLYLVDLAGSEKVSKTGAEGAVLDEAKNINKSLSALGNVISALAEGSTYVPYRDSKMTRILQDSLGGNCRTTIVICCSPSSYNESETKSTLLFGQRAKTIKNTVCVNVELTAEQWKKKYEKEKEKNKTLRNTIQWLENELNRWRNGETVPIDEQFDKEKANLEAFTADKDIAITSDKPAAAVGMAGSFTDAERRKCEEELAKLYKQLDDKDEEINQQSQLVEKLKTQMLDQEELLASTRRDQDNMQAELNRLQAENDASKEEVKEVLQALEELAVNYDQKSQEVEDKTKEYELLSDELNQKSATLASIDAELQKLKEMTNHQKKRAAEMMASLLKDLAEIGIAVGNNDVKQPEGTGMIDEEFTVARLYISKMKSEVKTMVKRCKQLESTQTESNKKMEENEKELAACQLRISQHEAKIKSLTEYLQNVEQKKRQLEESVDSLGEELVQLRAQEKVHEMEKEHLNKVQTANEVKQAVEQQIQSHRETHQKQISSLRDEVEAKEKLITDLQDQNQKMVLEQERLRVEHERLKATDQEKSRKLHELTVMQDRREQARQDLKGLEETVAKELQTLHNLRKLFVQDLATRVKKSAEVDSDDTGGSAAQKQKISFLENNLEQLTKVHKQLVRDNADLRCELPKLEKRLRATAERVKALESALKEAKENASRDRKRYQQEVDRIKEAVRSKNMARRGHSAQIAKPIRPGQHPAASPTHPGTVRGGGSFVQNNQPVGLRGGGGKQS
GST-Kif5b 891-963 (tail): residues 891-963 of Q61768

Columns and labels:
[1] = biological target: clathrin heavy chain (CHC) (mouse (endogenous in mouse cortex and in Neuro2a)) (UniProt Q68FD5); assay: co-IP
[2] = biological target: GST-Kif5b 891-963 (tail) (UniProt Q61768); assay: pull-down
[3] = biological target: Kif5b (kinesin-1 heavy chain) (mouse (endogenous in mouse cortex and in Neuro2a)) (UniProt Q61768); assay: co-IP

Molecule: flag-tagged CHC 1280-1429 (from UniProt Q68FD5 1280-1429) (domain or fragment)
binding [2]: binds

B2: syntaxin 6 (protein, UniProt Q9JKK1 1-255)
chain: MSMEDPFFVVKGEVQKAVNTAQGLFQRWTELLQGPSAATREEIDWTTNELRNNLRSIEWDLEDLDETISIVEANPRKFNLDATELSIRKAFITSTRQIVRDMKDQMSASSVQALAERKNRQALLGDSSSQSWNAGVADRYGRLDRELQLANSHFIEEQQAQQQLIVEQQDEQLELVSGSIGVLKNMSQRIGGELEEQAVMLDDFSHELESTQSRLDNVMKKLAKVSHMTSDRRQWCAIAILFAVLVVVLILFLVL
binding [3]: no binding

Next, values leading:

binding [1]: binds
Molecule: TAT-conjugated cell-penetrating peptide corresponding to Kif5b 891-915 (from UniProt Q61768 891-915)

binding [3]: no binding
B1: dynamin I (protein, UniProt P39053 1-867)
chain: MGNRGMEDLIPLVNRLQDAFSAIGQNADLDLPQIAVVGGQSAGKSSVLENFVGRDFLPRGSGIVTRRPLVLQLVNSTTEYAEFLHCKGKKFTDFEEVRLEIEAETDRVTGTNKGISPVPINLRVYSPHVLNLTLVDLPGMTKVPVGDQPPDIEFQIRDMLMQFVTKENCLILAVSPANSDLANSDALKIAKEVDPQGQRTIGVITKLDLMDEGTDARDVLENKLLPLRRGYIGVVNRSQKDIDGKKDITAALAAERKFFLSHPSYRHLADRMGTPYLQKVLNQQLTNHIRDTLPGLRNKLQSQLLSIEKEVDEYKNFRPDDPARKTKALLQMVQQFAVDFEKRIEGSGDQIDTYELSGGARINRIFHERFPFELVKMEFDEKELRREISYAIKNIHGIRTGLFTPDMAFETIVKKQVKKIREPCLKCVDMVISELISTVRQCTKKLQQYPRLREEMERIVTTHIREREGRTKEQVMLLIDIELAYMNTNHEDFIGFANAQQRSNQMNKKKTSGNQDEILVIRKGWLTINNIGIMKGGSKEYWFVLTAENLSWYKDDEEKEKKYMLSVDNLKLRDVEKGFMSSKHIFALFNTEQRNVYKDYRQLELACETQEEVDSWKASFLRAGVYPERVGDKEKASETEENGSDSFMHSMDPQLERQVETIRNLVDSYMAIVNKTVRDLMPKTIMHLMINNTKEFIFSELLANLYSCGDQNTLMEESAEQAQRRDEMLRMYHALKEALSIIGDINTTTVSTPMPPPVDDSWLQVQSVPAGRRSPTSSPTPQRRAPAVPPARPGSRGPAPGPPPAGSALGGAPPVPSRPGASPDPFGPPPQVPSRPNRAPPGVPSLGAWRLNSPQGKHENRAGKARL
